# Reference: US20080274131A1
# These are yes or no findings as the source states them, for the method shown. Some results given as binding are weak or reduced against the parent protein; the word gives no strength.
# Target: mimobody pCC2
# Assay: affinity chromatography
substance,measurement,value
protein G (from UniProt P06654 228-352),binding,binds
